This is one part of the list.

The chains are these.
B1: il2ra_site1_1z92_sap_22_mot_HHH_b1_04602_000000153_0001_1_19_H_._HHH_b1_00136_0001_0000300046_0000001_0_0001_af2pred_0001_af2pred_1 (protein)
chain: SSSSSDLEEIAKELVEELQREFNLDEAAKRDLEKFAEFLVKKGVSPELVEKNLRYVVRVTSSSSS
B2: il2ra_site1_2b5i_sap_9_mot_HHH_b1_00095_000000044_0001_1_14_H_._HHH_b1_03479_af2_0001_0000200014_0000001_0_0001_af2pred_0001_af2pred_1 (protein)
chain: SSSSSSDEKRRVRELLERANHVDDDEEVEKILEEAEEIAREANNPALERFVEAALRIASSSSSSS
B3: il2ra_site2_3nfp_sap_18_mot_HHH_b1_04032_000000208_0001_43_56_H_._HHH_b2_05228_0001_0000500021_0000001_0_0001_af2pred_0001_af2pred_swapped (protein)
chain: SSSSDYEEQVRELLERAEELRERGNPEEAERLLRRAASLAAEARDHELFAEVSEVLEKLGSSSSS
B4: il2ra_site1_2b5i_sap_9_mot_HHH_b2_06931_af2_000000221_0001_1_17_H_._HHH_b2_03102_af2_0001_0000200030_0000001_0_0001_af2pred_dldesign_0_af2pred (protein)
chain: SSSSSSSDKRALMARLDELFKAGKKEELEKLLKEAEEYAKKNKDKALLAYLKNIKELLSSSSSSS
B5: il2ra_site1_2b5i_sap_16_mot_HHH_b2_00318_000000002_0001_42_56_H_._HHH_b2_02760_0001_0000400035_0000001_1_0001_af2pred_dldesign_0_af2pred (protein)
chain: SSSSSSDFLEVLRRLEEALAAGRLEEARRLLEELREIAEKRKSPRLLKIVEMAREALESSSSSSS
B6: il2ra_site2_3nfp_normal_mot_HHH_b2_02437_000000052_0001_42_56_H_._HHH_b2_05748_0001_0000200030_0000001_0_af2pred_0001_af2pred_1 (protein)
chain: SSSSSEEVEEEVERLLEEAKRIEDEFEVFAVLADAAALAIENNNPELVRLVEKVSRELLGSSSSS
B7: il2ra_site2_3nfp_sap_15_mot_HHH_b2_08209_000000146_0001_1_18_H_._HHH_b1_00223_0001_0000100006_0000001_0_0001 (protein)
chain: SSSSDKAEEYLRIAEELIEEAREAGDEESARKMLEAAILMAEDLGDEEALEELRRILEELSSSSS
B8: il2ra_site1_2b5i_sap_11_mot_dbeaafda240321a0cf7c622ad65a8c3f_0001_000000010_0001_15_31_H_._42c349ed7ecc24df8868883d370ad53f_0001_0001_0001000058_0000001_0_0001_ … (protein)
chain: SSSSSDLKELVDALLERARELSKTDPELARRLLILARRIAKKAKDPELVAKVEAVRAELASSSSS
B9: il2ra_site2_3nfp_sap_11_mot_HHH_b2_07186_000000286_0001_42_55_H_._HHH_b1_07704_0001_0000200010_0000001_0_0001 (protein)
chain: SSSSSDTEEEVEELLEEAKRISDPEEVIQLLLEAAAAAAKHRDRELFAAVIAVAQKLIQSSSSSS
B10: il2ra_site2_2erj_sap_23_mot_HHH_b1_03425_000000133_0001_43_59_H_._HHH_b1_04908_0001_0000800014_0000001_0_0001_af2pred_0001_af2pred (protein)
chain: SEEEEEEERLRQLGVPPEVIELFRELLRKAKETGDPELREALLFARYALELGNPETAEAALKRAT
B11: il2ra_site1_2b5i_normal_mot_HHH_b1_01495_af2_000000272_0001_42_56_H_._HHH_b1_05097_af2_0001_0000100004_0000001_0_af2pred_0001_af2pred_1 (protein)
chain: SSSSDEEFQEVLELYLRASRAFLNGDPEKARELLEEALRLAEEINDENAVKDIEHMLELLNSSSS
B12: il2ra_site2_3nfp_sap_20_mot_d42de0cc81f4e0b3186ba921eb477610_0001_000000258_0001_1_14_H_._HHH_b1_00939_0001_0000200012_0000001_0_0001 (protein)
chain: SSSSSEEVEERVRELLEQAEKITDEEEVRKLLAEAARLAFENNDHELFMLVAEVAYRLVKSSSSS
B13: il2ra_site1_3nfp_normal_mot_HHH_b2_03322_af2_000000115_0001_43_57_H_._HHH_b1_01335_af2_0001_0000200002_0000001_0 (protein)
chain: SSSSSSDEAEEYLEELERLLEENDAHRFAQVTKEALRVANRENDEELSKLIERLLKRAASSSSSS
B14: il2ra_site1_1z92_normal_mot_HHH_b2_04375_000000267_0001_42_56_H_._HHH_b2_06256_0001_0000200013_0000001_0_af2pred_0001_af2pred_1_swapped (protein)
chain: SSSSSDEEEAEQVVERLVEEFGLSEEDKEVLERLAKQALERGLSEKSIHRALHFAAERAGSSSSS
B15: il2ra_site2_2erj_normal_mot_HHH_b1_03107_000000098_0001_39_52_H_._HHH_b2_05000_0001_0000600020_0000001_0 (protein)
chain: SSSSSDQEEVWREVAELLARAAHIKDPEEVEELLEEARRLAEEANNEILKRYIKFAEEDHSSSSS
B16: il2ra_site1_2b5i_sap_15_mot_HHH_b1_07936_af2_000000056_0001_1_17_H_._HHH_b1_06486_af2_0001_0000300010_0000001_0_0001_af2pred_dldesign_0_af2pred (protein)
chain: SSSSLEKISDKIHELYEKYNLSSEEYNDLVRKASRMIYEGKSEEEIIKELEAEAEELKKGSSSSS
B17: il2ra_site2_3nfp_normal_mot_HHH_b1_00660_af2_000000090_0001_40_57_H_._HHH_b1_04854_af2_0001_0000100002_0000001_0_af2pred_0001_1_af2pred_swapped (protein)
chain: SSSSSSDEEEEVEKLLERAKHIEDEEEALMLLLLAREIAEELNDEELERLVQEVLRELSSSSSSS
B18: il2ra_site2_2erj_sap_17_mot_HHH_b1_00449_000000059_0001_39_52_H_._HHH_b2_06170_0001_0000100002_0000001_0_0001 (protein)
chain: SSSSDEELHELYELAVRLLHLFARGDREEFEETAREARELAEERQSPTVREVVEWMLRELSSSSS
B19: il2ra_site2_3nfp_normal_mot_HHH_b1_00660_af2_000000090_0001_40_57_H_._HHH_b1_05946_0001_0000800022_0000001_1_af2pred_0001_af2pred (protein)
chain: SSSSSDLAEEAEELAEEARHVEDPEERRKILARASELAYEANDFEVFALIVLVFNQLERSSSSSS
B20: il2ra_site2_2erj_normal_mot_HHH_b2_00058_000000252_0001_23_39_H_._HHH_b2_01208_0001_0000400015_0000001_1_af2pred_0001_af2pred (protein)
chain: SSSSSDEEQEVEMILLFAEFAYEQGNPENAKLAAERALELAEEINNPELAREIEETLQRLLSSSS
B21: il2ra_site1_3nfp_normal_mot_HHH_b2_04095_af2_000000004_0001_43_56_H_._16934e337390fad51c35c10e6cd388ee_0001_1_0001_0000100012_0000001_0 (protein)
chain: PERLLKKFLEQAKKAPDPEVQEIVEEVEEVLKRDPEKALELLLELLREYGDPVAARFVEDLLRLA
B22: il2ra_site1_1z92_normal_mot_HHH_b1_03515_000000289_0001_1_19_H_._HHH_b1_04183_af2_0001_0000300032_0000001_0 (protein)
chain: SSSSSDERRAAKVIVKVLVRANGLSEEQEEELQELAEELVKRGLDPLEIIKLLDRLAAELSSSSS
B23: il2ra_site1_3nfp_sap_21_mot_HHH_b1_02637_af2_000000013_0001_1_18_H_._HHH_b1_06468_0001_0000100003_0000001_0_0001_af2pred_0001_af2pred_1_swapped (protein)
chain: SSSSTEELTRFVAELAREFNLDHKVLHELLRLVAKLLAEGLSEEEIKKILKELAEELERELSSSS
B24: il2ra_site1_1z92_sap_16_mot_HHH_b1_01467_000000208_0001_22_39_H_._HHH_b2_07023_0001_0000100002_0000001_0_0001_af2pred_0001_af2pred (protein)
chain: SSSSSDLEEIAEELVEELVEEFNLSEEEERALRKAAEDAVKAGFSPKSVEYALRAAVKYLSSSSS

The target of this assay is il2ra, P01589. Description: yeast display titration.
Regarding B1, the “apparent Kd” value is “inactive: no binding seen”.

Consider B2, for which the “apparent Kd” value was “inactive: no binding seen”.

For B3, the “apparent Kd” value was “inactive: no binding seen”.

With B4, the “apparent Kd” value was “inactive: no binding seen”.

As to B5, the “apparent Kd” value is “inactive: no binding seen”.

As to B6, the “apparent Kd” value is “inactive: no binding seen”.

For the molecule B7, the “apparent Kd” value was “inactive: no binding seen”.

Regarding B8, the “apparent Kd” value was “inactive: no binding seen”.

For B9, the “apparent Kd” value is “inactive: no binding seen”.

In the case of B10, the “apparent Kd” value is “inactive: no binding seen”.

In the case of B11, the “apparent Kd” value is “inactive: no binding seen”.

As to B12, the “apparent Kd” value is “inactive: no binding seen”.

Turning to B13, the “apparent Kd” value was “inactive: no binding seen”.

As to B14, the “apparent Kd” value is “inactive: no binding seen”.

B15: the “apparent Kd” value was “inactive: no binding seen”.

On to B16, for which the “apparent Kd” value was “inactive: no binding seen”.

In the case of B17, the “apparent Kd” value was “inactive: no binding seen”.

Regarding B18, the “apparent Kd” value was “inactive: no binding seen”.

For the molecule B19, the “apparent Kd” value was “inactive: no binding seen”.

As to B20, the “apparent Kd” value is “inactive: no binding seen”.

Turning to B21, the “apparent Kd” value is “inactive: no binding seen”.

For the molecule B22, the “apparent Kd” value was “inactive: no binding seen”.

On to B23, for which the “apparent Kd” value was “inactive: no binding seen”.

For the molecule B24, the “apparent Kd” value was “inactive: no binding seen”.

(Values after publication PMC10163288.)
